Article PMC12446771
These are yes or no findings as the source states them, for the method shown. Binding seen in cells or lysates may run through a third protein. A yes stands for co-enrichment or nearness to the bait. Other partners may have been found. For some assays here: No binding means not detected with the bait. For some assays here: Tags and fused reporters may be left off the sequences shown.

Sequences of proteins named here, by UniProt entry; tags and fusion partners are left off.
UniProt O95622: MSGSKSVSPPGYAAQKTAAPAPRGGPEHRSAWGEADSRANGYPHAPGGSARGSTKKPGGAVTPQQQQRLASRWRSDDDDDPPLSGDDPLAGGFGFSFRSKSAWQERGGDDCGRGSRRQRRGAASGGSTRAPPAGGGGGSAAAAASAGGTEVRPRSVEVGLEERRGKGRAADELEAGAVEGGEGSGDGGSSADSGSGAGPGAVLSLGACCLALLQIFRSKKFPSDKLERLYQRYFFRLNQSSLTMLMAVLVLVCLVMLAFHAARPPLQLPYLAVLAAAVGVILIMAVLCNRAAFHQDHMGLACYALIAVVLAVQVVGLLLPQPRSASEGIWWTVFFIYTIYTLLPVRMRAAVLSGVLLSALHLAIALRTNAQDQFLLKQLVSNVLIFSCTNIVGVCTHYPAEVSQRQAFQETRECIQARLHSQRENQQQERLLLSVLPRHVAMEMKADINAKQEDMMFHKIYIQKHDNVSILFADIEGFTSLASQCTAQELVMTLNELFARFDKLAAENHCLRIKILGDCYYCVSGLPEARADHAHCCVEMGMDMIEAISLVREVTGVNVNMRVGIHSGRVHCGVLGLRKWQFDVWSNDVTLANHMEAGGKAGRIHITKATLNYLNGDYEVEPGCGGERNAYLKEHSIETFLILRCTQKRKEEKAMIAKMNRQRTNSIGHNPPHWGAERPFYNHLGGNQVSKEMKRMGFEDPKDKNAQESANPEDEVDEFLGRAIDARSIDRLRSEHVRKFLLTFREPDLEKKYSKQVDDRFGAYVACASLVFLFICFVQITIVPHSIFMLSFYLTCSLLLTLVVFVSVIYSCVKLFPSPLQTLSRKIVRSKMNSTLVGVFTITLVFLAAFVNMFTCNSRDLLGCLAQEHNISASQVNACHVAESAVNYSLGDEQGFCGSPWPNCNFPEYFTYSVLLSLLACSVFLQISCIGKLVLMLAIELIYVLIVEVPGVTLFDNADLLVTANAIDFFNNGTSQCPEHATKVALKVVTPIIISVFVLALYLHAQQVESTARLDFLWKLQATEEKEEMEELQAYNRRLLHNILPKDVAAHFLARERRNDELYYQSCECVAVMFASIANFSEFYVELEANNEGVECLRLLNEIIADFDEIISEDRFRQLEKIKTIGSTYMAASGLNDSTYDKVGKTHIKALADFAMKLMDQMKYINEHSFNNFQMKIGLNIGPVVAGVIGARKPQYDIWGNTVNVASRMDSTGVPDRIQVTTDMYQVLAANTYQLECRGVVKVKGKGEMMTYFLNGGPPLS
UniProt O43306: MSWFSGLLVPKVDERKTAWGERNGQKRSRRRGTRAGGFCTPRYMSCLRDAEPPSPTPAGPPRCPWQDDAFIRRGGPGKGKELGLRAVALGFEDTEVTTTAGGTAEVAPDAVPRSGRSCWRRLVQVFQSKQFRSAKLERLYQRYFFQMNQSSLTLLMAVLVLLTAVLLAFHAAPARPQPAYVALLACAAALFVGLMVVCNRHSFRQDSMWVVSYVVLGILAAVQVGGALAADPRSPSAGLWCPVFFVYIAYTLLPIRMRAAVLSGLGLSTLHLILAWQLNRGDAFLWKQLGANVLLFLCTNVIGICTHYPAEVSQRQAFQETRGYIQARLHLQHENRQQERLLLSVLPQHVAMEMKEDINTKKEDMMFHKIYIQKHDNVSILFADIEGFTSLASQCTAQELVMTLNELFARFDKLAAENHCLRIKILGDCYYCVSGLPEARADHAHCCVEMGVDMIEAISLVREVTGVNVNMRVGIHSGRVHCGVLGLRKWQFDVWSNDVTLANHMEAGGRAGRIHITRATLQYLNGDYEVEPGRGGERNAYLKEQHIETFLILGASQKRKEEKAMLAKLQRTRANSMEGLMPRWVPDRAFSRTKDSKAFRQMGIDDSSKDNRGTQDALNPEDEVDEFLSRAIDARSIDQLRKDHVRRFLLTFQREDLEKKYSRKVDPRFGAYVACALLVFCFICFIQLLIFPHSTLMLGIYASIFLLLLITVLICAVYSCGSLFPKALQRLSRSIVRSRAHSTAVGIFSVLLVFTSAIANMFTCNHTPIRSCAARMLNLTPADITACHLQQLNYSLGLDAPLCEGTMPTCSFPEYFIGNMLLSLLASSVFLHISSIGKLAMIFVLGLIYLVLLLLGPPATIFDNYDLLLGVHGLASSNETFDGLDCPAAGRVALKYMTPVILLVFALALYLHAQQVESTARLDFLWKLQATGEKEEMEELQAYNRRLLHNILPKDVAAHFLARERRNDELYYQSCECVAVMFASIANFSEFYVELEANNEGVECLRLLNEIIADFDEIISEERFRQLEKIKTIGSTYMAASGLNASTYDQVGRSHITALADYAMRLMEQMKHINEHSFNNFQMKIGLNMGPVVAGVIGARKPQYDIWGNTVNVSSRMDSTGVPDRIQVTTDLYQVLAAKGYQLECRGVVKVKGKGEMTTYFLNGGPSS

T1: AC9-miniTurbo-FLAG fusion protein (human adenylyl cyclase 9) (human) (UniProt O60503)
T1 sequence: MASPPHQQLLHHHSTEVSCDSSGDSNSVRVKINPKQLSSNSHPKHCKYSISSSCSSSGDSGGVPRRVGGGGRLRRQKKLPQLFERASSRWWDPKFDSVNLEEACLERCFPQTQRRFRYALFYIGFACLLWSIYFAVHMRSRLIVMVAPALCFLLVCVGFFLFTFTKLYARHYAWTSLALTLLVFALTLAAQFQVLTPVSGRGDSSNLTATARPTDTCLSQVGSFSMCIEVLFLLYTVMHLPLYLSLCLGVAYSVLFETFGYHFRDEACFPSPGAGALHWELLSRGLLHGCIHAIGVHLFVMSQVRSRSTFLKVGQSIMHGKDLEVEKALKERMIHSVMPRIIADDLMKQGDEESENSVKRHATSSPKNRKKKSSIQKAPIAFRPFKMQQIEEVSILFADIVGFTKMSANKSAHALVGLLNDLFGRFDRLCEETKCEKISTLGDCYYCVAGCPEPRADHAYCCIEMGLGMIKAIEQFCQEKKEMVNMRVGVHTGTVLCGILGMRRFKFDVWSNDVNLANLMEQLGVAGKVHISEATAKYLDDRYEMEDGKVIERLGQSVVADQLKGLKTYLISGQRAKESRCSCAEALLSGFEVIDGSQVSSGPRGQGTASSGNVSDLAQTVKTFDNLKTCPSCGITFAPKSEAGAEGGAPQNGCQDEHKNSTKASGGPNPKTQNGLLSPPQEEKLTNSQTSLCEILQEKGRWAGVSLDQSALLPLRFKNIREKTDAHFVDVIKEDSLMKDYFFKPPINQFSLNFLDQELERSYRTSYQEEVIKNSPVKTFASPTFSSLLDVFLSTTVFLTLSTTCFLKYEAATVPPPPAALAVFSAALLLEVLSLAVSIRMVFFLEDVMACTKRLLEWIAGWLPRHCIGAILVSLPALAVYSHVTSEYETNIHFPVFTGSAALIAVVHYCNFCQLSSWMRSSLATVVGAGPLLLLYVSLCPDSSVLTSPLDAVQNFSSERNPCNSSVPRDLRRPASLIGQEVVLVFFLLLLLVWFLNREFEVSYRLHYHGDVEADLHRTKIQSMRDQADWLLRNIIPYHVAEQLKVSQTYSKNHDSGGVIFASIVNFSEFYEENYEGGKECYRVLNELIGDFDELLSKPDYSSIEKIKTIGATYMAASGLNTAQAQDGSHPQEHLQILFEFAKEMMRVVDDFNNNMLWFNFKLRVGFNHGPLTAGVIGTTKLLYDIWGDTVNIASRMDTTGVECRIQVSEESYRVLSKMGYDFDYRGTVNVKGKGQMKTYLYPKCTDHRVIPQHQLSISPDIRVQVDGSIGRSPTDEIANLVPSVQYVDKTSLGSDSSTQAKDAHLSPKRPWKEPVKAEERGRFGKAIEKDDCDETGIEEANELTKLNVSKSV

B1: junctophilin (JPH2) (protein, UniProt Q2PS20 1-692)
chain: MSGGRFDFDDGGAYCGGWEGGKAHGHGLCTGPKGQGEYSGSWNFGFEVAGVYTWPSGNTFEGYWSQGKRHGLGIETKGRWLYKGEWTHGFKGRYGIRQSTNSGAKYEGTWNNGLQDGYGTETYADGGTYQGQFTNGMRHGYGVRQSVPYGMAVVVRSPLRTSLSSLRSEHSNGTVAPDSPAADGPTLPLPPVPRGGFALSLLATAEAARPPGLFTRGALLGRLRRSESRTSLGSQRSRLSFLKSELSSGASDAASTGSLAEGAEGPDDAAAPFDADIDATTTETYMGEWKNDKRSGFGVSERSSGLRYEGEWLDNLRHGYGRTTLPDGHREEGKYRHNVLVKGTKRRVLPLKSNKVRQKVEHGVEGAQRAAAIARQKAEIAASRTSHAKAKAEAAEQAALAANQESNIARTLAKELAPDFYQPGPEYQKRRLLQEILENSESLLEPRERGPGTGLPERPRESPQLHERETPQPEGGPPSPAGTPPQPKRPRPGSSKDGLLSPGAWNGEPGGEGSRPATPSDGAGRRSPARPASEHMAIEALQPPPAPSREPEVALYRGYHSYAVRTGPPEPPPLEDEPEPEPEVPRSDSEPPSPVSATVQEEESPAPRSRVPAKPATLEPKPIVPKAEPKAKARKTEARGLSKAGAKKKGRKEVAQEAEAEVEVEEVPNTVLICMVILLNIGLAILFVHLLT
B2: phospholamban (PLN) (protein, UniProt P61016 1-52)
chain: MEKVQYLTRSAIRRASTIEMPQQARQNLQNLFINFCLILICLLLICIIVMLL
B3: endogenous AC9 (enzyme, UniProt M0R5U4 1-1373)
chain: MASSPHQQLLHHHSTEVSCDSSGDSNSVRVKINPKQLSSNTHPKHCKYSISSSCSSSGDSGGLPRRVGGGGRLRRQKKLPQLFERASSRWWDPKFDSVNLEEACLERCFPQTQRRFRYALFYVGFACLLWSIYFAVHMRSKVIVMVVPALCFLVVCVGFFLFTFTKLYARHYAWTSLALTLLVFALTLAAQFQVWTPLSGRVDSPNHTLTAKAADTCLSQVGSFSMCIEVLFLLYTVMHLPLYLSLFLGVVYSVLFETFGYHFRNEDCFPSPDPGALHWELLSRALLHVCIHAIGIHLFVMSQVRSRSTFLKVGQSIMHGKDLEVEKALKERMIHSVMPRIIADDLMKQGDEESENSVKRHATSSPKNRKKKASIQKAPIAFRPFKMQQIEEVSILFADIVGFTKMSANKSAHALVGLLNDLFGRFDRLCEETKCEKISTLGDCYYCVAGCPEPRADHAYCCIEMGLGMIKAIEQFCQEKKEMVNMRVGVHTGTVLCGILGMRRFKFDVWSNDVNLANLMEQLGVAGKVHISEATAKYLDDRYEMEDGRVMERLGQSVVADQLKGLKTYLISGQRAKESHCSCAEALLSGFEVIDDSRVSSGPRGQGTASPGSVSDLAQTVKTFDNLKTCPSCGITFAPKSEAGAEGGAVQNGCQDEPKASTKVTSSWLLFLSVPLLAHPPKASGGPNSKTQNGLLSPPAEEKLTNSQTSLCEILQEKGRWAGVSLDQSALLPLRFKNIREKTDAHFVDVIKEDSLMKDYFFKPPISQFSLNFLDQELEQSYRASYQEEVIKNSPVKTFASATFSSLLDVFLSTTVFLILSITCFLKYGATATPPPPAALAVFGADLLLEVLSLIVSIRMVFFLEDVLTCTKRLLEWIAGWLPRHCIGAILVSLPALAVYSHITSEFETNINFTMLTGSAVLVAVVHYCNFCQLSSWMRSSLATLVGAGPLLLLYISLCQDSSIVMSPLDTAQNFSASERSPCNSSVLQDGRRPASLIGKELILTFFLLLLLVWFLNREFEVSYRLHYHGDVEADLHRTKIQSMRDQADWLLRNIIPYHVAEQLKVSQTYSKNHDSGGVIFASIVNFSEFYEENYEGGKECYRVLNELIGDFDELLSKPDYNSIEKIKTIGATYMAASGLNTAQCQEGGHPQEHLRILFEFAKEMMRVVDDFNNNMLWFNFKLRVGFNHGPLTAGVIGTTKLLYDIWGDTVNIASRMDTTGVECRIQVSEESYRVLSKMGYDFDYRGTVNVKGKGQMKTYLYPKCTDNGVVPQHQLSISPDIRVQVDGSIGRSPTDEITNLVPSVQYLDKASLGSDDGAQTKEATLSSKRPWREPVKAEERFRFGKAIEKEDCEDTGAEEANELTKLNVSKSV

Experiments:
[1] = molecular target: AC5-miniTurbo-FLAG fusion protein (human adenylyl cyclase 5) (human) (UniProt O95622); test: proximity labelling; BioID: AC-miniTurbo-FLAG baits virally expressed in primary neonatal rat cardiomyocytes, vehicle or 48 h norepinephrine, 50 μM biotin 3 h, RIPA lysis, streptavidin pull-down, LC-MS/MS, SAINT score ≥0.7 against GFP-mT and uninfected controls
[2] = molecular target: AC6-miniTurbo-FLAG fusion protein (human adenylyl cyclase 6) (human) (UniProt O43306); test: proximity labelling + affinity purification with mass spectrometry; BioID and FLAG-MS of AC-mT-FLAG baits in neonatal rat cardiomyocytes; the sentence does not tell which of the two found the prey
[3] = molecular target: T1, AC9-miniTurbo-FLAG fusion protein (human adenylyl cyclase 9) (human); test: as above
[4] = molecular target: AC5-miniTurbo-FLAG fusion protein (human adenylyl cyclase 5) (human) (UniProt O95622); test: affinity purification with mass spectrometry; FLAG-MS: anti-FLAG M2 magnetic beads on lysates (0.1% NP-40, 100 mM KCl) of neonatal rat cardiomyocytes expressing AC-mT-FLAG, 2 to 3 h at 4 °C, SAINT against GFP-mT-FLAG

| Binder | binding [1] | binding [2] | binding [3] | binding [4] |
| --- | --- | --- | --- | --- |
| B1 | binds | binds | binds |  |
| B2 |  |  |  | binds |
| B3 |  |  |  | no binding |
